Measurements published in article PMC6638966, “The demethylase NMAD-1 regulates DNA replication and repair in the Caenorhabditis elegans germline” (PLoS Genetics, 2019).

Sequences of proteins named here, by UniProt entry; tags and fusion partners are left off. A change or cut given only in a name is not applied to a line headed by its entry.
UniProt Q86DC2: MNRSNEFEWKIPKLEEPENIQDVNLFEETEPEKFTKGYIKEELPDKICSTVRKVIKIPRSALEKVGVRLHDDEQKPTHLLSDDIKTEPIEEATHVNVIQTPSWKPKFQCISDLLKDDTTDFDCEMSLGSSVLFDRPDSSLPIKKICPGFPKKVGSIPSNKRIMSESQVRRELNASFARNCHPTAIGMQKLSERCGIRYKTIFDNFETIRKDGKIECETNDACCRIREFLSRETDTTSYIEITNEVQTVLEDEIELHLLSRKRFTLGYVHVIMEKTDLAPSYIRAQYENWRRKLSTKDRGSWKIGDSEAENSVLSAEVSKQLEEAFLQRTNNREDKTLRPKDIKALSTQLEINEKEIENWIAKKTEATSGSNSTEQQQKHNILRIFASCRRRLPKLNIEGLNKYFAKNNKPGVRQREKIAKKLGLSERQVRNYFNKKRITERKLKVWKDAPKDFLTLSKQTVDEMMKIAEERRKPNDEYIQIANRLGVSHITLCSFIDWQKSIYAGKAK
UniProt O44400: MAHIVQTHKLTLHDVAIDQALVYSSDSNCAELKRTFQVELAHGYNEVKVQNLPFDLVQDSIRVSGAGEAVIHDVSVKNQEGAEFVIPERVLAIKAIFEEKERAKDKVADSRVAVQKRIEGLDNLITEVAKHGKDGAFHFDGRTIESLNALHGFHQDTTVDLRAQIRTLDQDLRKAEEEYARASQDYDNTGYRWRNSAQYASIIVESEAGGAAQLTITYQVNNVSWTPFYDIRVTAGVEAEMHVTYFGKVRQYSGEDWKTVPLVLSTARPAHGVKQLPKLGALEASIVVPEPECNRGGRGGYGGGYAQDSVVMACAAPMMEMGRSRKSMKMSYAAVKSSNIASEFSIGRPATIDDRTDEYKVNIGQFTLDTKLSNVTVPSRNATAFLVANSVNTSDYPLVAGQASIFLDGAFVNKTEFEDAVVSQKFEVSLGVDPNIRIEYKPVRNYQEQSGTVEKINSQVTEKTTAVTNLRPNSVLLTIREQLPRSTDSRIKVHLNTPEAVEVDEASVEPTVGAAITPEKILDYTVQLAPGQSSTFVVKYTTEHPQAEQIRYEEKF
UniProt Q23670: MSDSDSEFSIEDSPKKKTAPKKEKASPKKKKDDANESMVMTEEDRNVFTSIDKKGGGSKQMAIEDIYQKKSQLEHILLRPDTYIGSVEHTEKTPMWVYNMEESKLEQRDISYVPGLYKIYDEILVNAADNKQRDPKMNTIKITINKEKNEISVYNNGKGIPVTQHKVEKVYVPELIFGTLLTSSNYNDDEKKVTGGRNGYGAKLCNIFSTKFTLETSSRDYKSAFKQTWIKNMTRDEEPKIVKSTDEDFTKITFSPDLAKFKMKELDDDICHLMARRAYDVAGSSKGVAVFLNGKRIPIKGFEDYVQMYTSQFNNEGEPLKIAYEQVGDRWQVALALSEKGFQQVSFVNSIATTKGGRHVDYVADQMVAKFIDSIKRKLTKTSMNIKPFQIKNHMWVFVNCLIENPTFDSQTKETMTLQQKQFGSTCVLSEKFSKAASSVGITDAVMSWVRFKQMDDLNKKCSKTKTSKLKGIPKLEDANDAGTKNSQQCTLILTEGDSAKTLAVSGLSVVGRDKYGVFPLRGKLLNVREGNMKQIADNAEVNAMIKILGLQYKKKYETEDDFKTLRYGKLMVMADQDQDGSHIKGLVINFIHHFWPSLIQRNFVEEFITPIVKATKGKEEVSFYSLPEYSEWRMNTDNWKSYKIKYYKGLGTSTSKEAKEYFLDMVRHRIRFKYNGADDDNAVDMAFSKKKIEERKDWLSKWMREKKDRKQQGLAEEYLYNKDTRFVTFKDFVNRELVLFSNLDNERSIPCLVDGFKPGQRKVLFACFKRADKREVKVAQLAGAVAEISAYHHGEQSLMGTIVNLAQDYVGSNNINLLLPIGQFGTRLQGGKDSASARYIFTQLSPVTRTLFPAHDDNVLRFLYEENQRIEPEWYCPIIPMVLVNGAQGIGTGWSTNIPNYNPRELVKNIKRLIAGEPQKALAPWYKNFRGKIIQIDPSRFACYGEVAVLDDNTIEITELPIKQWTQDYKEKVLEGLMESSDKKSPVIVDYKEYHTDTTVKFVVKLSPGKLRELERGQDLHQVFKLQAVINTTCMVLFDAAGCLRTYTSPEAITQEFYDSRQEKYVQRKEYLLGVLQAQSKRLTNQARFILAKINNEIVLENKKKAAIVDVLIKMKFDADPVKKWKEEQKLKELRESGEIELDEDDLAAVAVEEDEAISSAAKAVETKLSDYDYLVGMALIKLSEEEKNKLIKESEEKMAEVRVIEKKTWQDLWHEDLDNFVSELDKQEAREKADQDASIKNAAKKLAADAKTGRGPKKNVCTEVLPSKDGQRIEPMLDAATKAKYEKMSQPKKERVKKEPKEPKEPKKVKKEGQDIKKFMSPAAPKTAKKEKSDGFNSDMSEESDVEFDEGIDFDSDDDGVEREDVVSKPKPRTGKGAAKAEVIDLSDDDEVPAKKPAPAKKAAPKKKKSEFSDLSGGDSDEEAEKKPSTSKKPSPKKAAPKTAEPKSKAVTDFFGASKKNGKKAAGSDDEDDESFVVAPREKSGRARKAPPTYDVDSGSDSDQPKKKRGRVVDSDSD

Target: T1, Flag-tagged GFP::NMAD-1 fusion protein (gfp::3xflag::nmad-1 transgene) (C. elegans) (UniProt Q8MNT9)
T1 sequence: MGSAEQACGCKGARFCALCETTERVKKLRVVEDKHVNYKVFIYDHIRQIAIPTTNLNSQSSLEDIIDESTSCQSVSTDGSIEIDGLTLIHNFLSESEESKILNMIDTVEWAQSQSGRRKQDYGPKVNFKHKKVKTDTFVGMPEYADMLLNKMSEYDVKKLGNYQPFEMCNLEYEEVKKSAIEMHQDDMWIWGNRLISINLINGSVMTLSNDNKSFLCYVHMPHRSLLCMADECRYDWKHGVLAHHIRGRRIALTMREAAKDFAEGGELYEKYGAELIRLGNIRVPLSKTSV
Experiment: affinity purification with mass spectrometry; GFP and Flag IP (control IgG IP) from extract of the GFP::3xFLAG::NMAD-1 strain, mixed stage worms; high-salt buffer (20 mM HEPES pH 7.0, 200 mM NaCl), Protein A Dynabeads, 3 h at 4 °C

Row | Substance | binding
1 | CEH-93 (endogenous) (from UniProt Q86DC2) | binds
2 | F37C4.5 (endogenous) (from UniProt O44400) | binds
3 | TOP-2 (endogenous) (from UniProt Q23670 1-1520) (enzyme) | binds

These are yes or no findings as the source states them, for the method shown. Binding seen in cells or lysates may run through a third protein. A yes stands for co-enrichment or nearness to the bait. Other partners may have been found. Tags and fused reporters may be left off the sequences shown.
